The supplement of paper PMC11732987, “Enantioselective OTUD7B fragment discovery through chemoproteomics screening and high-throughput optimisation” (Communications Chemistry, 2025)
The list shows a part of the results. The data scatter; read single values as rough.

Amino acid sequences for entries named in this document (tags omitted). A change or cut given only in a name is not applied to a line headed by its entry. Residues count along the entry.
UniProt Q96JM3: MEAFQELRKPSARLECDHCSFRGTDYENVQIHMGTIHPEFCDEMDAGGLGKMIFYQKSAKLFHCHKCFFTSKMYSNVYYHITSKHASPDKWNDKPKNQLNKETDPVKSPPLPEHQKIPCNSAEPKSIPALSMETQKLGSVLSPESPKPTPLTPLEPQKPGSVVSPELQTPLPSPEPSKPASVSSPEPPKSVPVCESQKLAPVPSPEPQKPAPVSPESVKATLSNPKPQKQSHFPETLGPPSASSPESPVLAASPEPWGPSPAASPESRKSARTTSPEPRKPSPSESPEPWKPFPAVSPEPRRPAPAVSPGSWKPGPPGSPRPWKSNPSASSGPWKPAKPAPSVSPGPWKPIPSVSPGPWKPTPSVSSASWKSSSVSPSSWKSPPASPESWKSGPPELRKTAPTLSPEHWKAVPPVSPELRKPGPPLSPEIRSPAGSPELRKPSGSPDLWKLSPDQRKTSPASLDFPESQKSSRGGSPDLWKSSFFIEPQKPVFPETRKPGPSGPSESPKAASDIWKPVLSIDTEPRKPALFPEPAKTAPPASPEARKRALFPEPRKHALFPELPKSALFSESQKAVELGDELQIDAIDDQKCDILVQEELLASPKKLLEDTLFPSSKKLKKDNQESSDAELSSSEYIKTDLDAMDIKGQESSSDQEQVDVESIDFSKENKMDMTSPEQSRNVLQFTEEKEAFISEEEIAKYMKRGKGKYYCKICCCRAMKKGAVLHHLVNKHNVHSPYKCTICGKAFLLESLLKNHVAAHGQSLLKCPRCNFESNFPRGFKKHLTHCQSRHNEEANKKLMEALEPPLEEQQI
UniProt Q96G28, 132-155: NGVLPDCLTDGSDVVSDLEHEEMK
UniProt O75794: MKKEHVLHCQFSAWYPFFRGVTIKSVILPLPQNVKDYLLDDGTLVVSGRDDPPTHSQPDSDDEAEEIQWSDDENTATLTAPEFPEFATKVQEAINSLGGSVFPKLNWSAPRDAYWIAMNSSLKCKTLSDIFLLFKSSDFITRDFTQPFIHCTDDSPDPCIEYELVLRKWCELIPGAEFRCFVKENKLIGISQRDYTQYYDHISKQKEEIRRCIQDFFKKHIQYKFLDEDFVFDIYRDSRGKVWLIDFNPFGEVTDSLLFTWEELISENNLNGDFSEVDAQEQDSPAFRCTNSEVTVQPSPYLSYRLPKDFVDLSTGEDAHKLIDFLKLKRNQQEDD
UniProt P14635, whole entry, looked up: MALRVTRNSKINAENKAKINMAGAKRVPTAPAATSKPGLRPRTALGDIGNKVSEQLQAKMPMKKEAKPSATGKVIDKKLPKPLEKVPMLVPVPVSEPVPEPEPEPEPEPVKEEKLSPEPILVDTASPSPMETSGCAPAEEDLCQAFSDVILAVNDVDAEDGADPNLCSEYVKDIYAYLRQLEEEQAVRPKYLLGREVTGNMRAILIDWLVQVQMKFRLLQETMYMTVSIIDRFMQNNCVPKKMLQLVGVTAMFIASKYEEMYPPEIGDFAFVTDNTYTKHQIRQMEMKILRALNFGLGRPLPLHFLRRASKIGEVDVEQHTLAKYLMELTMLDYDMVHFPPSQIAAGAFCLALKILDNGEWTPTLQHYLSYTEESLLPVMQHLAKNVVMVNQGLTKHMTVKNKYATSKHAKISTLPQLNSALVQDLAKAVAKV
UniProt Q99832: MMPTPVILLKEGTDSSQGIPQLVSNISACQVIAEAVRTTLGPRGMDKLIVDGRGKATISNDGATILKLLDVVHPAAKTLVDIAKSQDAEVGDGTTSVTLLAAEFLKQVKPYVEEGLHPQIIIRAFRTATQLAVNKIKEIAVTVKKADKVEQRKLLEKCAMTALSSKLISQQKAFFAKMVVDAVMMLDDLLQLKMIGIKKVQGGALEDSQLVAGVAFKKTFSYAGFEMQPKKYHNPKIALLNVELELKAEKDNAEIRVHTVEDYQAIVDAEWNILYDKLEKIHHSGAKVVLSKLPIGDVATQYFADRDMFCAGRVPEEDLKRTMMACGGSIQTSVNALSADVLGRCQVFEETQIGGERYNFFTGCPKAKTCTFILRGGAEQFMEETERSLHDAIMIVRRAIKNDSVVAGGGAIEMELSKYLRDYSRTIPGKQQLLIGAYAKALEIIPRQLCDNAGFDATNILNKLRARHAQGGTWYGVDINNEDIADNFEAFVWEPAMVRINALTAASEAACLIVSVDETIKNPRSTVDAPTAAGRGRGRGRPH
UniProt Q9C0D2, 2288-2308: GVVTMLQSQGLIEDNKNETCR
UniProt Q99741, 238-261: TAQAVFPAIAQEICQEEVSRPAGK
UniProt Q66GS9: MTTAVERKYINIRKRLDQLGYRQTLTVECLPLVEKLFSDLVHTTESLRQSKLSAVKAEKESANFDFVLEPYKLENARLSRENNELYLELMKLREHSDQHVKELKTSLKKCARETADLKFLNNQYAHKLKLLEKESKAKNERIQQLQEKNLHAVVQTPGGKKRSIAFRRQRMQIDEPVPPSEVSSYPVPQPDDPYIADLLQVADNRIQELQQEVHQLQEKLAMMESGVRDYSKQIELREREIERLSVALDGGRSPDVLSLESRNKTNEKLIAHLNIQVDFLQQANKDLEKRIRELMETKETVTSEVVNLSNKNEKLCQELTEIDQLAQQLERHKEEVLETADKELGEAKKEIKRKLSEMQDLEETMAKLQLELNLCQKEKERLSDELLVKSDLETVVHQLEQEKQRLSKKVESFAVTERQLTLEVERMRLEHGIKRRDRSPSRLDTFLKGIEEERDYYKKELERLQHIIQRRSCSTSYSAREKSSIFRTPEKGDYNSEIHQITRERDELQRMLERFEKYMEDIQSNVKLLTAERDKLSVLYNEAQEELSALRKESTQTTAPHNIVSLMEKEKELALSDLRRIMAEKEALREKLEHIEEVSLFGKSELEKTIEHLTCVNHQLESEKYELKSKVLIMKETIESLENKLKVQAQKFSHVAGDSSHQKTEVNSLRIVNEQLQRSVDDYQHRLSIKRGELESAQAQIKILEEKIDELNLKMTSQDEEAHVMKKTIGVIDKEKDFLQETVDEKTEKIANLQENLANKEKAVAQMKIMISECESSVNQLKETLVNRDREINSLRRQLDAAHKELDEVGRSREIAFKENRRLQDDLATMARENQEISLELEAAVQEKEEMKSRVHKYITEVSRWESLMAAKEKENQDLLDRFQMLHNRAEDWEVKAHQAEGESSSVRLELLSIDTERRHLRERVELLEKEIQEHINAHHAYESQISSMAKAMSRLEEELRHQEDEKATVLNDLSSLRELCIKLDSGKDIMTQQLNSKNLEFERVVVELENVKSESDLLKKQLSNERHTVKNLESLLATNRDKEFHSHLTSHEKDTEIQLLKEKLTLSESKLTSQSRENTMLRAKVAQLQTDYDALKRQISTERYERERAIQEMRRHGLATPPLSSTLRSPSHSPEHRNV
UniProt Q96F63: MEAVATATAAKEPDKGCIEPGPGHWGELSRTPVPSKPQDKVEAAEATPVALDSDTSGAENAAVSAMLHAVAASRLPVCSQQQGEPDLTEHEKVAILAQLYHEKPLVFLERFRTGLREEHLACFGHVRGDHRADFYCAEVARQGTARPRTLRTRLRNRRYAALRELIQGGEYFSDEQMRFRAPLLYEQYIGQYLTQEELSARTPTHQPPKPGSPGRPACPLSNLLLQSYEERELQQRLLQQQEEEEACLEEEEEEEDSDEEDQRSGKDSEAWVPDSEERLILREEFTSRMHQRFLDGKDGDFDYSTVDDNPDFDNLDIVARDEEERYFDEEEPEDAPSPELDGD
UniProt Q9H7U1: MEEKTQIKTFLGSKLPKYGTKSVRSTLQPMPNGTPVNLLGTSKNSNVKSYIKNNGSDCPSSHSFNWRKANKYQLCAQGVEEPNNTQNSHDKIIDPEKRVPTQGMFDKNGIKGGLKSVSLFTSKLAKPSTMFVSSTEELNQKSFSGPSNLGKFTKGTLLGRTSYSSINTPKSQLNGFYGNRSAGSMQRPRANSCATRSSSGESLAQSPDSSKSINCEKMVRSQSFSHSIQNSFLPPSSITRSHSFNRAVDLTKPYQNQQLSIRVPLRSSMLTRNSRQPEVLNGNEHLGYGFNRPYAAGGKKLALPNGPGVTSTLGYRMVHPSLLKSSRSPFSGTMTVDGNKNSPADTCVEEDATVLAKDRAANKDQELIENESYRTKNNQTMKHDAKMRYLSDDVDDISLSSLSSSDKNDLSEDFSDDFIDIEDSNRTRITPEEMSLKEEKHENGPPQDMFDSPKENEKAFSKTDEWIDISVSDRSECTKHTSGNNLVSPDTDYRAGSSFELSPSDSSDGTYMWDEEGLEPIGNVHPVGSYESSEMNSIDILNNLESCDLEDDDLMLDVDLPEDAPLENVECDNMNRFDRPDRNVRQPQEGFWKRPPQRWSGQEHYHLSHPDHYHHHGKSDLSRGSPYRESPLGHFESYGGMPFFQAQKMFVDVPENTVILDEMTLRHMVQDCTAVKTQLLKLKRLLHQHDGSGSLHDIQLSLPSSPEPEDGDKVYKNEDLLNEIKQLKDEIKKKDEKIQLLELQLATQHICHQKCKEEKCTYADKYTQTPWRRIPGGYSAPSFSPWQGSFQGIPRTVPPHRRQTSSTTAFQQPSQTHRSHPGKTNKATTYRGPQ
UniProt Q96SN8: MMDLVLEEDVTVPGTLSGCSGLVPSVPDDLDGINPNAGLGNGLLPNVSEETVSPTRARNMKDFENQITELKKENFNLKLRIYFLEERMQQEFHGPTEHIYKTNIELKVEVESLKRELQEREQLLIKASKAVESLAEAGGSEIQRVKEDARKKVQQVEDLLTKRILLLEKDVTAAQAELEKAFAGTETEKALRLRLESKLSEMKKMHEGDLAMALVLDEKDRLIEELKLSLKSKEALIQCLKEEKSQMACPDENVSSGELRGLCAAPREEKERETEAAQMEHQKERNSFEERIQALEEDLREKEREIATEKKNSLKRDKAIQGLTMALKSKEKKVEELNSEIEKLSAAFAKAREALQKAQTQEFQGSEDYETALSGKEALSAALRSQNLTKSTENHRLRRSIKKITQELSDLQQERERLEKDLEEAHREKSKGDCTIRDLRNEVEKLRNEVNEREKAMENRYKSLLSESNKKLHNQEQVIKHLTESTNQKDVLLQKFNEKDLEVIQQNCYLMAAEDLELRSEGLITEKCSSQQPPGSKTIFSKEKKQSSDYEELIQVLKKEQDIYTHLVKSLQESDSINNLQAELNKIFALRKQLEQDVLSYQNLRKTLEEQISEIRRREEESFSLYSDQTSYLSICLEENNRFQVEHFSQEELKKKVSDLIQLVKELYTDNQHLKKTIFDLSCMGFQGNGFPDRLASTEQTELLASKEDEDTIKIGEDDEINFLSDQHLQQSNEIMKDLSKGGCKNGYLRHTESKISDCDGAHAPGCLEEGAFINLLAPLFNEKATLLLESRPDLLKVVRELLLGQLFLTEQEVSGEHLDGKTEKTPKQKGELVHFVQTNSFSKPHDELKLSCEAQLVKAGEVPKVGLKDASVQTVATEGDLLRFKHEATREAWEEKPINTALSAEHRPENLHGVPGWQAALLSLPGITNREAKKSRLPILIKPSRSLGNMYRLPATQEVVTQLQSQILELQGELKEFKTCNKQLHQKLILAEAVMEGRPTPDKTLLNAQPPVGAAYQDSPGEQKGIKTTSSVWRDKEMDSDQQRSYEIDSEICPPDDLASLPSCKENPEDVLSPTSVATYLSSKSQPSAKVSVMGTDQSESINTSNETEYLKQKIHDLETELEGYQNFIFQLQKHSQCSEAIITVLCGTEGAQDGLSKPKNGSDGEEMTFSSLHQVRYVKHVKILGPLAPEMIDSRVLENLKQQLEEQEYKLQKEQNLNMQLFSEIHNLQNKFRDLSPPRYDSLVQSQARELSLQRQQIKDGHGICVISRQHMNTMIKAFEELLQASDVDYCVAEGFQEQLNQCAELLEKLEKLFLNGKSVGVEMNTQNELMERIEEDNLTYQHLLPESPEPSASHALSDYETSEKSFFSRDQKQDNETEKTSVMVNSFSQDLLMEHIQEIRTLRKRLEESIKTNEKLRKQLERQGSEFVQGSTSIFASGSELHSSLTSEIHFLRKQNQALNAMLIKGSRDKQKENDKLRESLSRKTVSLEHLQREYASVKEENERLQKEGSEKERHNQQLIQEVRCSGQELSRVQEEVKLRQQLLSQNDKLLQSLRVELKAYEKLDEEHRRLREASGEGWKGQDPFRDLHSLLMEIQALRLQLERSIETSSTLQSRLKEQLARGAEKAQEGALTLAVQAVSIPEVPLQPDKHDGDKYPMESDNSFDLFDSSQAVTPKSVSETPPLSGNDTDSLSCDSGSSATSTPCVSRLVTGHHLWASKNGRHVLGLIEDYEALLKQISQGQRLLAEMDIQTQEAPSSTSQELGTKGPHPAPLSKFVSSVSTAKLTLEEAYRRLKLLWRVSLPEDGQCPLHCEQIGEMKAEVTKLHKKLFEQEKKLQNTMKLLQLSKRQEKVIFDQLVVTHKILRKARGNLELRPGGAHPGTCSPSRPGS

Assays:
[1] = compound: ClCC(=O)N[C@@H]1CCCc2ccccc12; test: log2 mean competition ratio of IA-DTB cysteine labelling (DMSO/compound) (log2 ratio); higher = stronger cysteine engagement by compound; details: treatment time: 4 h, cell line lysate: HEK293T
Method: (§1)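 IA-DTB competitive cysteine chemoproteomics in HEK293T RIPA lysate. Lysates were treated with compound 29 or 30 at 50 or 200 µM for 4 h, then IA-DTB (500 µM, 1 h), trypsin-digested, NeutrAvidin-enriched and analysed by diaPASEF. Competition ratio = intensity DMSO / intensity compound (n=4 treated, n=64 DMSO); binding: mean log2 CR ≥ 1 and p ≤ 0.05 plus QC filters. Target is the cysteine site.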

[2] = compound: ClCC(=O)N[C@H]1CCCc2ccccc12; test: as above; details: treatment time: 4 h, cell line lysate: HEK293T
Method: as §1

CCP110 C462 (UniProt O43303)
log2 mean competition ratio ([1]; 50 µM): 0.0921 | log2 mean competition ratio ([1]; 200 µM): -0.216 | log2 mean competition ratio ([2]; 50 µM): 0.365 | log2 mean competition ratio ([2]; 200 µM): -0.318

CDK4 C78 (UniProt P11802)
log2 mean competition ratio ([1]; 50 µM): -0.08 | log2 mean competition ratio ([1]; 200 µM): -0.0949 | log2 mean competition ratio ([2]; 50 µM): 0.0653 | log2 mean competition ratio ([2]; 200 µM): -0.0131

CENPF C2052 (UniProt P49454)
log2 mean competition ratio ([1]; 50 µM): 0.00497 | log2 mean competition ratio ([1]; 200 µM): -0.435 | log2 mean competition ratio ([2]; 50 µM): 0.145 | log2 mean competition ratio ([2]; 200 µM): -0.314

CCDC88A C1244 (UniProt Q3V6T2)
log2 mean competition ratio ([1]; 50 µM): -0.0275 | log2 mean competition ratio ([1]; 200 µM): -0.144 | log2 mean competition ratio ([2]; 50 µM): -0.0763 | log2 mean competition ratio ([2]; 200 µM): -0.0911

CEP55 C462 (UniProt Q53EZ4)
log2 mean competition ratio ([1]; 50 µM): 0.0622 | log2 mean competition ratio ([1]; 200 µM): 0.0577 | log2 mean competition ratio ([2]; 50 µM): 0.0755 | log2 mean competition ratio ([2]; 200 µM): -0.0322

CHD2 C415 (UniProt O14647)
log2 mean competition ratio ([1]; 50 µM): 0.0539 | log2 mean competition ratio ([1]; 200 µM): 0.656 | log2 mean competition ratio ([2]; 50 µM): -0.0301 | log2 mean competition ratio ([2]; 200 µM): 0.57

CDC16 C245 (UniProt Q13042)
log2 mean competition ratio ([1]; 50 µM): 0.173 | log2 mean competition ratio ([1]; 200 µM): -0.0847 | log2 mean competition ratio ([2]; 50 µM): -0.335 | log2 mean competition ratio ([2]; 200 µM): -0.252

CENPC C800 (UniProt Q03188)
log2 mean competition ratio ([1]; 50 µM): 0.0564 | log2 mean competition ratio ([1]; 200 µM): 0.328 | log2 mean competition ratio ([2]; 50 µM): -0.156 | log2 mean competition ratio ([2]; 200 µM): 0.307

CHAMP1 C770 (UniProt Q96JM3)
log2 mean competition ratio ([1]; 50 µM): 0.0916 | log2 mean competition ratio ([1]; 200 µM): -0.146 | log2 mean competition ratio ([2]; 50 µM): 0.00248 | log2 mean competition ratio ([2]; 200 µM): -0.0504

CERK C50
log2 mean competition ratio ([1]; 50 µM): -0.33 | log2 mean competition ratio ([1]; 200 µM): 0.0111 | log2 mean competition ratio ([2]; 50 µM): -0.406 | log2 mean competition ratio ([2]; 200 µM): 0.152

CFAP36 C138 (UniProt Q96G28)
log2 mean competition ratio ([1]; 50 µM): -0.00968 | log2 mean competition ratio ([1]; 200 µM): 0.116 | log2 mean competition ratio ([2]; 50 µM): -0.565 | log2 mean competition ratio ([2]; 200 µM): -0.0137

CDC42BPB C1075 (UniProt Q9Y5S2)
log2 mean competition ratio ([1]; 50 µM): -0.306 | log2 mean competition ratio ([1]; 200 µM): -0.00592 | log2 mean competition ratio ([2]; 50 µM): 0.378 | log2 mean competition ratio ([2]; 200 µM): -0.108

CDC123 C170 (UniProt O75794)
log2 mean competition ratio ([1]; 50 µM): -0.217 | log2 mean competition ratio ([1]; 200 µM): -0.419 | log2 mean competition ratio ([2]; 50 µM): -0.284 | log2 mean competition ratio ([2]; 200 µM): -0.309

CDC23 C532 (UniProt Q9UJX2)
log2 mean competition ratio ([1]; 50 µM): 0.208 | log2 mean competition ratio ([1]; 200 µM): 0.0076 | log2 mean competition ratio ([2]; 50 µM): 0.119 | log2 mean competition ratio ([2]; 200 µM): -0.082

CCDC88C C1520 (UniProt Q9P219)
log2 mean competition ratio ([1]; 50 µM): 0.099 | log2 mean competition ratio ([1]; 200 µM): -0.361 | log2 mean competition ratio ([2]; 50 µM): -0.013 | log2 mean competition ratio ([2]; 200 µM): 0.103

CDC20 C472 (UniProt Q12834)
log2 mean competition ratio ([1]; 50 µM): -0.153 | log2 mean competition ratio ([1]; 200 µM): 0.196 | log2 mean competition ratio ([2]; 50 µM): -0.295 | log2 mean competition ratio ([2]; 200 µM): 0.198

CEP350 C413 (UniProt Q5VT06)
log2 mean competition ratio ([1]; 50 µM): -0.166 | log2 mean competition ratio ([1]; 200 µM): 0.204 | log2 mean competition ratio ([2]; 50 µM): 0.0602 | log2 mean competition ratio ([2]; 200 µM): 0.129

CDKAL1 C556 (UniProt Q5VV42)
log2 mean competition ratio ([1]; 50 µM): 0.144 | log2 mean competition ratio ([1]; 200 µM): 0.204 | log2 mean competition ratio ([2]; 50 µM): 0.554 | log2 mean competition ratio ([2]; 200 µM): 0.346

CEP192 C272 (UniProt Q8TEP8)
log2 mean competition ratio ([1]; 50 µM): -0.151 | log2 mean competition ratio ([1]; 200 µM): 0.289 | log2 mean competition ratio ([2]; 50 µM): 0.129 | log2 mean competition ratio ([2]; 200 µM): 0.377

CCNB1 C238 (UniProt P14635)
log2 mean competition ratio ([1]; 50 µM): 0.361 | log2 mean competition ratio ([1]; 200 µM): -0.0765 | log2 mean competition ratio ([2]; 50 µM): 0.194 | log2 mean competition ratio ([2]; 200 µM): -0.3

CCT7 C158 (UniProt Q99832)
log2 mean competition ratio ([1]; 50 µM): 0.29 | log2 mean competition ratio ([1]; 200 µM): -0.0445 | log2 mean competition ratio ([2]; 50 µM): 0.549 | log2 mean competition ratio ([2]; 200 µM): 0.0724

CDK12 C862 (UniProt Q9NYV4)
log2 mean competition ratio ([1]; 50 µM): 0.486 | log2 mean competition ratio ([1]; 200 µM): 0.157 | log2 mean competition ratio ([2]; 50 µM): 0.448 | log2 mean competition ratio ([2]; 200 µM): 0.00806

CHAF1A C21 (UniProt Q13111)
log2 mean competition ratio ([1]; 50 µM): 0.00423 | log2 mean competition ratio ([1]; 200 µM): 0.181 | log2 mean competition ratio ([2]; 50 µM): 0.371 | log2 mean competition ratio ([2]; 200 µM): 0.335

CEP295 C2307 (UniProt Q9C0D2)
log2 mean competition ratio ([1]; 50 µM): 0.139 | log2 mean competition ratio ([1]; 200 µM): 0.283 | log2 mean competition ratio ([2]; 50 µM): 0.858 | log2 mean competition ratio ([2]; 200 µM): 0.168

CDC6 C251 (UniProt Q99741)
log2 mean competition ratio ([1]; 50 µM): -0.314 | log2 mean competition ratio ([1]; 200 µM): 0.0725 | log2 mean competition ratio ([2]; 50 µM): -0.0643 | log2 mean competition ratio ([2]; 200 µM): -0.108

CDC42BPB C120 (UniProt Q9Y5S2)
log2 mean competition ratio ([1]; 50 µM): -0.0175 | log2 mean competition ratio ([1]; 200 µM): -0.0976 | log2 mean competition ratio ([2]; 50 µM): 0.245 | log2 mean competition ratio ([2]; 200 µM): -0.151

CEP135 C473 (UniProt Q66GS9)
log2 mean competition ratio ([1]; 50 µM): 0.377 | log2 mean competition ratio ([1]; 200 µM): 0.162 | log2 mean competition ratio ([2]; 50 µM): 0.2 | log2 mean competition ratio ([2]; 200 µM): 0.0648

CCDC97 C17 (UniProt Q96F63)
log2 mean competition ratio ([1]; 50 µM): 0.0649 | log2 mean competition ratio ([1]; 200 µM): 0.155 | log2 mean competition ratio ([2]; 50 µM): 0.0301 | log2 mean competition ratio ([2]; 200 µM): 0.0211

CEP192 C594 (UniProt Q8TEP8)
log2 mean competition ratio ([1]; 50 µM): -0.0671 | log2 mean competition ratio ([1]; 200 µM): 0.319 | log2 mean competition ratio ([2]; 50 µM): 0.164 | log2 mean competition ratio ([2]; 200 µM): 0.0947

CEP350 C1432 (UniProt Q5VT06)
log2 mean competition ratio ([1]; 50 µM): -0.317 | log2 mean competition ratio ([1]; 200 µM): 0.42 | log2 mean competition ratio ([2]; 50 µM): -0.118 | log2 mean competition ratio ([2]; 200 µM): 0.381

CECR2 C1084
log2 mean competition ratio ([1]; 50 µM): -0.271 | log2 mean competition ratio ([1]; 200 µM): -0.108 | log2 mean competition ratio ([2]; 50 µM): 0.47 | log2 mean competition ratio ([2]; 200 µM): 0.141

CCT8 C430
log2 mean competition ratio ([1]; 50 µM): -0.0797 | log2 mean competition ratio ([1]; 200 µM): 0.0042 | log2 mean competition ratio ([2]; 50 µM): 0.252 | log2 mean competition ratio ([2]; 200 µM): -0.032

CCSER2 C672 (UniProt Q9H7U1)
log2 mean competition ratio ([1]; 50 µM): -0.0667 | log2 mean competition ratio ([1]; 200 µM): -0.00203 | log2 mean competition ratio ([2]; 50 µM): -0.0392 | log2 mean competition ratio ([2]; 200 µM): 0.0681

CENPE C1644 (UniProt Q02224)
log2 mean competition ratio ([1]; 50 µM): -0.12 | log2 mean competition ratio ([1]; 200 µM): 0.268 | log2 mean competition ratio ([2]; 50 µM): -0.153 | log2 mean competition ratio ([2]; 200 µM): 0.0347

CDR2 C432 (UniProt Q01850)
log2 mean competition ratio ([1]; 50 µM): 0.166 | log2 mean competition ratio ([1]; 200 µM): 0.015 | log2 mean competition ratio ([2]; 50 µM): 0.583 | log2 mean competition ratio ([2]; 200 µM): -0.0243

CFL1 C80
log2 mean competition ratio ([1]; 50 µM): -0.0902 | log2 mean competition ratio ([1]; 200 µM): -0.36 | log2 mean competition ratio ([2]; 50 µM): -0.355 | log2 mean competition ratio ([2]; 200 µM): -0.741

CDK5RAP2 C1528 (UniProt Q96SN8)
log2 mean competition ratio ([1]; 50 µM): 0.214 | log2 mean competition ratio ([1]; 200 µM): 0.294 | log2 mean competition ratio ([2]; 50 µM): 0.185 | log2 mean competition ratio ([2]; 200 µM): 0.13

CEP112 C514 (UniProt Q8N8E3)
log2 mean competition ratio ([1]; 50 µM): -0.391 | log2 mean competition ratio ([1]; 200 µM): -0.464 | log2 mean competition ratio ([2]; 50 µM): -0.336 | log2 mean competition ratio ([2]; 200 µM): -0.168
